We go through one substance from publication PMC12700556.

The chains behind the UniProt entries cited, without tags or fusion partners. Where a name states a change or a piece, a line headed by the entry shows the natural chain unless it says otherwise.
UniProt P15090: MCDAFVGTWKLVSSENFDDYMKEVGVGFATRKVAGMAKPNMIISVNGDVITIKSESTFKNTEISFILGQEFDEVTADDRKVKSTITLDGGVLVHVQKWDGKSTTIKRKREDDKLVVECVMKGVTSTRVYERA
UniProt P05556: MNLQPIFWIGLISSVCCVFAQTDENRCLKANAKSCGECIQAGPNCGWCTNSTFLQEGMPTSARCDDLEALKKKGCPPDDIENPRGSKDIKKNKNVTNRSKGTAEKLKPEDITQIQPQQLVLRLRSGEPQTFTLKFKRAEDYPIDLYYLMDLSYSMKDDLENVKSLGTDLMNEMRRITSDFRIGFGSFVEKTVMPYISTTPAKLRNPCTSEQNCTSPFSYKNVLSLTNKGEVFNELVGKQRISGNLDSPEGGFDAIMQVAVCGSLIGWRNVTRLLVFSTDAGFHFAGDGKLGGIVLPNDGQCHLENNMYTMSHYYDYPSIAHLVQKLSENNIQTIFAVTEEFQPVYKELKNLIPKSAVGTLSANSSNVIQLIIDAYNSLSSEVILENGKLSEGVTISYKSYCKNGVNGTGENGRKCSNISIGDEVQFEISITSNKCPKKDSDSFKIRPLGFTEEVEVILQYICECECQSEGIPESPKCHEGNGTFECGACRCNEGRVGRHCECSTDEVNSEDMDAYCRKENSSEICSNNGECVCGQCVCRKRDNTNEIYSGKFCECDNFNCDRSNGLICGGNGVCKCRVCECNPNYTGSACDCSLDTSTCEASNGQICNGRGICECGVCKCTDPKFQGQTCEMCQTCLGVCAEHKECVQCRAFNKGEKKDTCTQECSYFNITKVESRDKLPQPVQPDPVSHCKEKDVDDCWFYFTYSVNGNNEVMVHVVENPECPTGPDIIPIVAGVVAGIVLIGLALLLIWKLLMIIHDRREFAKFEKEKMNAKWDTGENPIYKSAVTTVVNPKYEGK

This test addresses biotinylated recombinant human FABP4 protein (fatty acid-binding protein 4) (human) (UniProt P15090). The experiment in a line: affinity purification with mass spectrometry; biotinylated rhFABP4 on the membrane surface of Huh7 cells, streptavidin capture, mass spectrometry (n = 1); surface proteins detected with >=2 unique peptides; only the target purified.

Results are given in words; binding and its absence hold for the method and conditions named. Binding seen in cells or lysates may run through a third protein. Here binding means that the protein was enriched with, or labelled near, the bait; the list need not be complete.

Regarding “integrin β 1 (ITGB1) (from UniProt P05556 21-798) (receptor)”, the binding entry was “binds”.
